# Some of the results follow.
# Protein sequences, listed by entry. Tags and fused reporters are not part of them.
# UniProt Q0JBA9, entry or part of it: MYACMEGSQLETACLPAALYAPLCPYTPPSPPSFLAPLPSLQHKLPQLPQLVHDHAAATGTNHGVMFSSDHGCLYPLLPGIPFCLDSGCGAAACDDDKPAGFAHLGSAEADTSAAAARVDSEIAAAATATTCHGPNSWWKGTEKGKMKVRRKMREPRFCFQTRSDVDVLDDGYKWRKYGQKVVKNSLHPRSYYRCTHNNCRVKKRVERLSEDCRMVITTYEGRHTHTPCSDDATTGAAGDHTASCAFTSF
# Target: OsWRKY34 (Oryza sativa, UniProt Q0JBA9 1-250)
# Test: protein-binding microarray (RPBM); PBS, 2% BSA, 51.3 ng/ul salmon testes DNA, 50 uM zinc acetate, 200 nM TF, 25 C, 1 h; high values mean tight binding
# Details: protein: recombinant; tags: N-terminal polyhistidine and DsRed monomer fusion (pET32a); label: CyDye5-dUTP incorporated in the synthesized complementary strand; 3' TTTTT single-stranded linker to array surface; dsDNA, one strand shown
# Method in brief: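 Ni–NTA purification followed expression in E. coli BL21-CodonPlus of transcription factors fused N-terminally to a polyhistidine tag and DsRed. At 200 nM in PBS with 2% BSA, salmon testes DNA and 50 µM zinc acetate, the protein was incubated for 1 h at 25 °C with a custom Agilent array that had been primer-extended with Cy5-dUTP and blocked with 2% BSA. After washing, the array was read on an Axon 4000B scanner. The binding signal is per-feature fluorescence intensity in arbitrary units.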
row,Sequence,binding signal
1,ATTCCAAGCTCCATTGCATCTCTCACACGCTGTCCCCAGTCGGAGTCACCTAGTGCAG,12700 fluorescence intensity (a.u.)
2,ATCCCCAACAGTTTCGTTTTTTATTTGCCCATTTTGTTTGCGGAGTCACCTAGTGCAG,13700 fluorescence intensity (a.u.)
3,CCTCACTCGCTAACCGTTACTGCGCGCCGCTGCCGCCCCGCGGAGTCACCTAGTGCAG,9350 fluorescence intensity (a.u.)
4,GCTCTCATGGCCTCACACACCGCGCCATTGCCATCGTTTCCGGAGTCACCTAGTGCAG,17000 fluorescence intensity (a.u.)
5,TCGTTGTAGTTTTACTTGTCTTATCAATTTTGCATGAATTCGGAGTCACCTAGTGCAG,9050 fluorescence intensity (a.u.)
6,CCGGCCCCTTTTTTTCCCGGGGATCCGGTGCGTGCAGGAACGGAGTCACCTAGTGCAG,9630 fluorescence intensity (a.u.)
7,CTACTCCACAGCATCCATCATCCACAGCTGAGAGATTTGACGGAGTCACCTAGTGCAG,9610 fluorescence intensity (a.u.)
8,CTCTTGTTGCTTCTGGTATGAATAAGGATGACGCCTCTCACGGAGTCACCTAGTGCAG,8600 fluorescence intensity (a.u.)
9,AAATCTGTAGCCCGCTGCTTTTCTCTCTCCTTATTTATCTCGGAGTCACCTAGTGCAG,11200 fluorescence intensity (a.u.)
10,AAGGCTTATCACTTCGATTTTTATTTTAGTCCTTGTACTTCGGAGTCACCTAGTGCAG,8460 fluorescence intensity (a.u.)
11,CCTAAACACCTTTGTACCTTTTGGCATCTCAATTCTTTGGCGGAGTCACCTAGTGCAG,8270 fluorescence intensity (a.u.)
12,CGCCCGCCACAGCAGCCGCTCCGCCACTGCCCGCAGCCGCCGGAGTCACCTAGTGCAG,8150 fluorescence intensity (a.u.)
13,GGGGTGTTTGGTTCGGAAAGTGATCCTCATGTGCAGTTGACGGAGTCACCTAGTGCAG,12300 fluorescence intensity (a.u.)
14,TCTCGGCCTCTGAAAGCCCATATACAATTGCCTTACCTGTCGGAGTCACCTAGTGCAG,8790 fluorescence intensity (a.u.)
15,AACATTATATAACACCTACACATCGTGAGATCCATGCATCCGGAGTCACCTAGTGCAG,9590 fluorescence intensity (a.u.)
16,CACAAGTGAACTCCACCGCGGCGTCCGATCGGAAATCAACCGGAGTCACCTAGTGCAG,8090 fluorescence intensity (a.u.)
17,TCATGTCCTCATGTTGCAGTTGTCTTTTCCTTGTCTCTCCCGGAGTCACCTAGTGCAG,9050 fluorescence intensity (a.u.)
18,CGTTGACCTCACCGCTGCCGCCATCGTCGCCACCTTCGCCCGGAGTCACCTAGTGCAG,10200 fluorescence intensity (a.u.)
19,AAACGCTATTGACTTTTTTTATAAATGTATGACCATTCGTCGGAGTCACCTAGTGCAG,10400 fluorescence intensity (a.u.)
20,TCTTCCCGCCTCGCCACCGCCGCCGCTCGCCTCACCGATGCGGAGTCACCTAGTGCAG,10200 fluorescence intensity (a.u.)
21,GCACAGGCCACGCACCCCATGTTGCTCATCCAATGTGACGCGGAGTCACCTAGTGCAG,8210 fluorescence intensity (a.u.)

row,Sequence,binding signal
1,ATGTTATCGCTATCCCTATTATAAAACTTGCTCGTATGAACGGAGTCACCTAGTGCAG,8120 fluorescence intensity (a.u.)
2,ACTTTTTTTACAATCTGGTCCTTTATGAACATTCTTTTTTCGGAGTCACCTAGTGCAG,8080 fluorescence intensity (a.u.)
3,TGCAGAATCGCTCACCTTCTTCTTCTTCTTCTTCATGGGCCGGAGTCACCTAGTGCAG,9860 fluorescence intensity (a.u.)
4,CGCAAATGGGCCAGTGGGTCGCTGTCCAGAGTGGGAGGGGCGGAGTCACCTAGTGCAG,9470 fluorescence intensity (a.u.)
5,TGTTAACTTTTTAGTACGTGTTTGACTATTCGTTTTATTCCGGAGTCACCTAGTGCAG,12800 fluorescence intensity (a.u.)
6,GAGAGAGGGGATGGGTACACATGTGTGTCGGTGCGTTTAGCGGAGTCACCTAGTGCAG,9740 fluorescence intensity (a.u.)
7,AGGCCCGTGCAGGAAGGGGCCGGGGCAGTGACCACCACCACGGAGTCACCTAGTGCAG,13300 fluorescence intensity (a.u.)
8,CCTCGAACATTGCGACCTTGGCGAACACTGAGGTGTTGACCGGAGTCACCTAGTGCAG,8240 fluorescence intensity (a.u.)
9,CTACTACCCGGCCTCTCGCCTTCTCGCGCGGCCGCGATTTCGGAGTCACCTAGTGCAG,9180 fluorescence intensity (a.u.)
10,CGCCACCACAAACCGCCGCCGCCTCCTCCTCTCCTATCTGCGGAGTCACCTAGTGCAG,8280 fluorescence intensity (a.u.)
11,CACGGTTTTTATTATTTTTTTTGGATCCAATTGACACATACGGAGTCACCTAGTGCAG,9500 fluorescence intensity (a.u.)
12,CCAAACACACCACACCCCGCGCCGCGCCGCGCCTTCACTTCGGAGTCACCTAGTGCAG,8860 fluorescence intensity (a.u.)
13,AGGTTCTTATATCAACTGATGTTCTTGCTCGAGGTTTCGACGGAGTCACCTAGTGCAG,8630 fluorescence intensity (a.u.)
14,ATACAACGGTGGACCGGTGATGGACTTTACTCTTTCTATACGGAGTCACCTAGTGCAG,8480 fluorescence intensity (a.u.)
15,CTTAGTTTTACCTCTCTATTTTACTTTGTGAGAACATTCCCGGAGTCACCTAGTGCAG,8460 fluorescence intensity (a.u.)
16,GCACAACTTTTCGTTTTTTATATTTGCACAATTTTTTTTTCGGAGTCACCTAGTGCAG,12200 fluorescence intensity (a.u.)
17,AAATGGTAGTTGTCGCTGTTGTTTCCCAGCACCTCTCGCTCGGAGTCACCTAGTGCAG,10800 fluorescence intensity (a.u.)
18,ATGGTGATCGGACGGCTGAGATTGCGTGGTGGTGGCGGGACGGAGTCACCTAGTGCAG,8940 fluorescence intensity (a.u.)
19,AACTGCACTTCCCTTTTCAGCTCTTCTCCAACCTCAATTTCGGAGTCACCTAGTGCAG,10100 fluorescence intensity (a.u.)
20,TCTGTTGACCTGTAAATTCTTCTGGGCCATTATCCCAACACGGAGTCACCTAGTGCAG,8700 fluorescence intensity (a.u.)
21,AATTTCCTTGTATTTCTGTTTATTAATCCTATGCTATTTTCGGAGTCACCTAGTGCAG,8300 fluorescence intensity (a.u.)

row,Sequence,binding signal
1,GTGTCCAAACTTTCCTCGAACTCCTCCCCGCCGCATAAATCGGAGTCACCTAGTGCAG,8550 fluorescence intensity (a.u.)
2,TCTGGTCAGCACCACTTTGATCCTTGCAATCGCCACATCACGGAGTCACCTAGTGCAG,8550 fluorescence intensity (a.u.)
3,GATTCTGATGTGACACAAACTTATTAACAATATTCCAACACGGAGTCACCTAGTGCAG,9280 fluorescence intensity (a.u.)
4,ATTTTTTCTTTATCTCTCACTCGATTTTCTCACTCAAATTCGGAGTCACCTAGTGCAG,11500 fluorescence intensity (a.u.)
5,TACTTTGCATCCCTCCACGTTCGGGCATATCATATAGCTCCGGAGTCACCTAGTGCAG,8150 fluorescence intensity (a.u.)
6,TTTCCCTGCAATTGGATTCTTCACAGGTGGAAGACTTACCCGGAGTCACCTAGTGCAG,8610 fluorescence intensity (a.u.)
7,TATAATAGGTTTTGTTTCACTTAGATTTCACAGATTTTGTCGGAGTCACCTAGTGCAG,8120 fluorescence intensity (a.u.)
8,ACCCTTCTCGTCTCGTGTATACAATGTATGTACCTATTAACGGAGTCACCTAGTGCAG,9850 fluorescence intensity (a.u.)
9,TCGGTCCCTCCGCTTCGCTGTTGTGGGACGTGGGTCGGGGCGGAGTCACCTAGTGCAG,11500 fluorescence intensity (a.u.)
10,ACTTAATCCATTTTCTTTTCTTCTCCTATTTTTCCATCAACGGAGTCACCTAGTGCAG,9970 fluorescence intensity (a.u.)
11,TACGGGAGCGTCCTCTTCCTCTTCTTCGCTCTCCACTCCGCGGAGTCACCTAGTGCAG,10300 fluorescence intensity (a.u.)
12,CGACCAAACAACCGCCTTTTTTTTTAGTCTCCACTCTCTCCGGAGTCACCTAGTGCAG,8970 fluorescence intensity (a.u.)
13,ATACCACTAGCTCGCCTCTCGTCTCCGCGTCACTGAAATTCGGAGTCACCTAGTGCAG,11500 fluorescence intensity (a.u.)
14,ATCTAGCATCTCCGTTTTTTGTAAGGTTGGTTCATGCCTCCGGAGTCACCTAGTGCAG,10400 fluorescence intensity (a.u.)
15,TTTTAATAACACCATTGACTTTTCATATAACATTGGTCCACGGAGTCACCTAGTGCAG,9200 fluorescence intensity (a.u.)
16,TCTTCGCACCCTAAGATTTCCACGTCGTCGATGCCTTTTCCGGAGTCACCTAGTGCAG,8510 fluorescence intensity (a.u.)
17,GCCTCCGCCTCTCATATTTTTCCCATTTTTCACCTGCCTTCGGAGTCACCTAGTGCAG,10800 fluorescence intensity (a.u.)
18,ATCTATCTATTGTACCCTTCTTAAACCGGAAGCAACATATCGGAGTCACCTAGTGCAG,8150 fluorescence intensity (a.u.)
19,ACACGGCCACAGTTTCTTCATAGATTTGTTGTTACTACTCCGGAGTCACCTAGTGCAG,9340 fluorescence intensity (a.u.)
20,ATATTCCCCTGTGGTTCTACTCTCCCATCCCGTCCGGTTCCGGAGTCACCTAGTGCAG,8720 fluorescence intensity (a.u.)
21,CCGGAACTCCGTCATGTCGGCCTTCTTCGCGAACTTCTTCCGGAGTCACCTAGTGCAG,8170 fluorescence intensity (a.u.)

# Shown with bars between the fields: entries from further up.
row | Sequence | binding signal
15 | AACATTATATAACACCTACACATCGTGAGATCCATGCATCCGGAGTCACCTAGTGCAG | 9590 fluorescence intensity (a.u.)
18 | CGTTGACCTCACCGCTGCCGCCATCGTCGCCACCTTCGCCCGGAGTCACCTAGTGCAG | 10200 fluorescence intensity (a.u.)
15 | CTTAGTTTTACCTCTCTATTTTACTTTGTGAGAACATTCCCGGAGTCACCTAGTGCAG | 8460 fluorescence intensity (a.u.)

# (list continues)

row,Sequence,binding signal
1,GGATCTGTCCGTTCTACCACCTCTAAACAGCGGTTACCGACGGAGTCACCTAGTGCAG,8260 fluorescence intensity (a.u.)
2,GTAGCTGGGTCAAATTTGTACTTGTATGAGCAAGGTTGCTCGGAGTCACCTAGTGCAG,8130 fluorescence intensity (a.u.)
3,AGTCTAACACGGTTTCCGATATGCAACTTTGACCAACAATCGGAGTCACCTAGTGCAG,8250 fluorescence intensity (a.u.)
4,CATTTCTCTGGACTTCTCTCTCCCTTTCTTCCTTTCTCTGCGGAGTCACCTAGTGCAG,9260 fluorescence intensity (a.u.)
5,GTTTTATGGTTATAGTAGTTTCGCGTGTTTCATAAAATAACGGAGTCACCTAGTGCAG,8220 fluorescence intensity (a.u.)
6,TCCCATCGATGATCCTTCGTTGATTCGCGTCAACCTCTCGCGGAGTCACCTAGTGCAG,8690 fluorescence intensity (a.u.)
7,CCAATACGATATCGACTCGACCCTTGTTCGGCCCAGTACGCGGAGTCACCTAGTGCAG,8030 fluorescence intensity (a.u.)
8,CTCCGTTTTGTTTTTTTTTTCGTTTTCTTTTTTCTTCCTCCGGAGTCACCTAGTGCAG,12200 fluorescence intensity (a.u.)
9,TCGTTGTGTCGGCTCCACCCGTTTGGGTGGATCCCTTCCGCGGAGTCACCTAGTGCAG,8060 fluorescence intensity (a.u.)
10,TCCCAAAGGAGCCCTCACAAAAATTCGGCCATTTTCGCTTCGGAGTCACCTAGTGCAG,8220 fluorescence intensity (a.u.)
11,TGTGCCTTAATCCACATGCTTAACCTTAATTAATTGATTACGGAGTCACCTAGTGCAG,9350 fluorescence intensity (a.u.)
12,TGTTGACTTTTGGATACATGTTTGACAATTCGTCTTATTTCGGAGTCACCTAGTGCAG,14700 fluorescence intensity (a.u.)
13,GCGATGTGTGTTGACTTAAGTCACCGTCCTCCGTAACGATCGGAGTCACCTAGTGCAG,10400 fluorescence intensity (a.u.)
14,TTGCGGATTGGTGGAAGGAGTTGGTTTATTTTGGGACAAACGGAGTCACCTAGTGCAG,8220 fluorescence intensity (a.u.)
15,GGTGGCGAGAGGAGGGGATGGCGGAGGGCGGCGAAGGGACCGGAGTCACCTAGTGCAG,11300 fluorescence intensity (a.u.)
16,TCTTGGTTACATGGTGGTTGGTGTTTCATTCTCTTGTTTTCGGAGTCACCTAGTGCAG,10000 fluorescence intensity (a.u.)
17,ATTTTGTGCTTCAACTTGTTATCATACAATTTTCCAATTACGGAGTCACCTAGTGCAG,8260 fluorescence intensity (a.u.)
18,CGCCGCGTCCCACCCGCTCCACGCCGCGTACGCGCTCTTCCGGAGTCACCTAGTGCAG,8640 fluorescence intensity (a.u.)
19,GTCTTCTGCATGAAGGGTGGGCAAGGGGAGTCCAGTTACCCGGAGTCACCTAGTGCAG,9570 fluorescence intensity (a.u.)
20,AATTGATGATGTGGAGTCGTTTTTCATCGTTTCCGTGAAACGGAGTCACCTAGTGCAG,8120 fluorescence intensity (a.u.)
21,TCCTCACCTGGATTCTGTTCCAAATTTGATCAACCACACTCGGAGTCACCTAGTGCAG,11000 fluorescence intensity (a.u.)

# — paper PMC7819943, “Rice protein-binding microarrays: a tool to detect cis-acting elements near promoter regions in rice”
